Data published in patent US9978954B2, “Benzobis (thiadiazole) derivative, ink comprising same, and organic electronic device comprising same” (UBE INDUSTRIES, LTD., priority 2013, dated 2018).
Some compounds share one wording; it may come from a single statement.

Assay: Field-effect mobility of organic TFT, organic semiconductor layer by spin-coating
[1] = ink 0.1 wt % in chloroform heated at 70° C., PVP substrate, heated at 180° C. for 35 minutes, drain voltage 100 V
[2] = ink 0.1 wt % in chloroform heated at 70° C., bare substrate, heated at 150° C. for 35 minutes, drain voltage 100 V
[3] = ink 0.1 wt % in chloroform heated at 70° C., bare substrate, heated at 180° C. for 35 minutes, drain voltage 100 V
[4] = ink 0.1 wt % in chloroform heated at 60° C., PVP substrate, heated at 180° C. for 35 minutes, drain voltage 100 V
[5] = ink 0.1 wt % in chloroform heated at 60° C., bare substrate, heated at 180° C. for 35 minutes, drain voltage 100 V
[6] = ink 0.1 wt % in chloroform prepared at room temperature, bare substrate, no annealing, drain voltage 100 V

CCCCCCCCc1ccc(-c2ccc(-c3c4c(c(-c5ccc(-c6ccc(CCCCCCCC)c(C#N)c6)s5)c5nsnc35)N=S=N4)s2)cc1C#N [Compound (C26), 4,8-bis[5-(3-cyano-4-octylphenyl)thiophene-2-yl]benzo[1,2-c:4,5-c′]bis[1,2,5]thiadiazole]
field-effect mobility (μ) (ink 0.1 wt % in chloroform prepared at room temperature, PVP substrate, heated at 180° C. for 35 minutes, drain voltage 100 V): 5.1×10^−3 cm^2/Vs
field-effect mobility (μ) (ink 0.1 wt % in chloroform prepared at room temperature, bare substrate, heated at 180° C. for 35 minutes, drain voltage 100 V): 2.5×10^−3 cm^2/Vs

CCCCCCc1cc(-c2ccc(-c3c4c(c(-c5ccc(-c6ccc(OC(F)(F)F)c(CCCCCC)c6)s5)c5nsnc35)N=S=N4)s2)ccc1OC(F)(F)F [Compound (C12)]
field-effect mobility (μ) (ink 0.3 wt % in toluene heated at 100° C., CYC substrate, no annealing, drain voltage 100 V): 6.9×10^−2 cm^2/Vs
field-effect mobility (μ) (ink 0.3 wt % in toluene heated at 100° C., PS substrate, heated at 150° C. for 35 minutes, drain voltage 100 V): 3.5×10^−1 cm^2/Vs
field-effect mobility (μ) (ink 0.3 wt % in toluene heated at 100° C., PVP substrate, heated at 180° C. for 35 minutes, drain voltage 100 V): 2.5×10^0 cm^2/Vs

CCCCCCc1ccc(-c2ccc(-c3c4c(c(-c5ccc(-c6ccc(CCCCCC)c(C(F)(F)F)c6)s5)c5nsnc35)N=S=N4)s2)cc1C(F)(F)F [Compound (C9), 4,8-bis[5-(4-hexyl-3-(trifluoromethyl)phenyl)thiophene-2-yl]benzo[1,2-c:4,5-c′]bis[1,2,5]thiadiazole]
field-effect mobility (μ) [1]: 8.9×10^−1 cm^2/Vs
field-effect mobility (μ) [2]: 5.7×10^−1 cm^2/Vs
field-effect mobility (μ) (ink 0.3 wt % in xylene heated at 70° C., CYC substrate, no annealing, drain voltage 100 V): 3.1×10^−1 cm^2/Vs
field-effect mobility (μ) (ink 0.3 wt % in xylene heated at 70° C., PS substrate, no annealing, drain voltage 100 V): 5.1×10^−3 cm^2/Vs
field-effect mobility (μ) (ink 0.3 wt % in xylene heated at 70° C., PVP substrate, heated at 180° C. for 35 minutes, drain voltage 100 V): 4.8×10^−1 cm^2/Vs

CCCCCCCCc1ccc(-c2ccc(-c3c4c(c(-c5ccc(-c6ccc(CCCCCCCC)c(C(F)(F)F)c6)s5)c5nsnc35)N=S=N4)s2)cc1C(F)(F)F [Compound (C25), 4,8-bis[5-(4-octyl-3-(trifluoromethyl)phenyl)thiophene-2-yl]benzo[1,2-c:4,5-c′]bis[1,2,5]thiadiazole]
field-effect mobility (μ) [1]: 1.1×10^0 cm^2/Vs
field-effect mobility (μ) [3]: 4.4×10^−1 cm^2/Vs

CCCCCCCCCCc1cc(-c2ccc(-c3c4c(c(-c5ccc(-c6ccc(C#N)c(CCCCCCCCCC)c6)s5)c5nsnc35)N=S=N4)s2)ccc1C#N [Compound (C16), 4,8-bis[5-(4-cyano-3-decylphenyl)thiophene-2-yl]benzo[1,2-c:4,5-c′]bis[1,2,5]thiadiazole]
field-effect mobility (μ) (ink 0.1 wt % in chloroform heated at 60° C., CYC substrate, heated at 240° C. for 35 minutes, drain voltage 100 V): 2.4×10^0 cm^2/Vs
field-effect mobility (μ) [4]: 1.3×10^0 cm^2/Vs
field-effect mobility (μ) [5]: 1.4×10^0 cm^2/Vs

CCCCCCc1cc(-c2ccc(-c3c4c(c(-c5ccc(-c6ccc(C(F)(F)F)c(CCCCCC)c6)s5)c5nsnc35)N=S=N4)s2)ccc1C(F)(F)F [Compound (C10), 4,8-bis[5-(3-hexyl-4-(trifluoromethyl)phenyl)thiophene-2-yl]benzo[1,2-c:4,5-c′]bis[1,2,5]thiadiazole]
field-effect mobility (μ) [1]: 4.4×10^0 cm^2/Vs
field-effect mobility (μ) [2]: 1.4×10^0 cm^2/Vs
field-effect mobility (μ) (ink 0.3 wt % in xylene heated at 90° C., CYC substrate, no annealing, drain voltage 100 V): 6.0×10^−2 cm^2/Vs
field-effect mobility (μ) (ink 0.3 wt % in xylene heated at 90° C., PS substrate, heated at 150° C. for 35 minutes, drain voltage 100 V): 1.9×10^−2 cm^2/Vs
field-effect mobility (μ) (ink 0.3 wt % in xylene heated at 90° C., PVP substrate, heated at 120° C. for 35 minutes, drain voltage 100 V): 3.4×10^−1 cm^2/Vs

CCCCCCc1cc(-c2ccc(-c3c4c(c(-c5ccc(-c6cc(CCCCCC)c(C#N)c(CCCCCC)c6)s5)c5nsnc35)N=S=N4)s2)cc(CCCCCC)c1C#N [Compound (C22), 4,8-bis[5-(4-cyano-3,5-dihexylphenyl)thiophene-2-yl]benzo[1,2-c:4,5-c′]bis[1,2,5]thiadiazole]
field-effect mobility (μ) (ink 0.1 wt % in chloroform prepared at room temperature, PVP substrate, heated at 120° C. for 35 minutes, drain voltage 100 V): did not have the transistor characteristics
field-effect mobility (μ) (ink 0.1 wt % in chloroform prepared at room temperature, bare substrate, heated at 120° C. for 35 minutes, drain voltage 100 V): did not have the transistor characteristics

CCCCCCCCCCCCCCCCCCc1cc(-c2ccc(-c3c4c(c(-c5ccc(-c6ccc(C#N)c(CCCCCCCCCCCCCCCCCC)c6)s5)c5nsnc35)N=S=N4)s2)ccc1C#N [Compound (C20), 4,8-bis[5-(4-cyano-3-octadecylphenyl)thiophene-2-yl]benzo[1,2-c:4,5-c′]bis[1,2,5]thiadiazole]
field-effect mobility (μ) (ink 0.1 wt % in chloroform heated at 70° C., PVP substrate, heated at 180° C. for 35 minutes, drain voltage 40 V): 3.0×10^0 cm^2/Vs
field-effect mobility (μ) (ink 0.1 wt % in chloroform heated at 70° C., bare substrate, heated at 120° C. for 35 minutes, drain voltage 80 V): 2.3×10^0 cm^2/Vs

CCCCC(CC)Cc1ccc(-c2ccc(-c3c4c(c(-c5ccc(-c6ccc(CC(CC)CCCC)c(C(F)(F)F)c6)s5)c5nsnc35)N=S=N4)s2)cc1C(F)(F)F (centres unmarked) [Compound (C31)]
field-effect mobility (μ) (ink 0.1 wt % in chloroform prepared at room temperature, PVP substrate, heated at 150° C. for 35 minutes, drain voltage 100 V): 4.7×10^−1 cm^2/Vs
field-effect mobility (μ) [6]: 5.1×10^−1 cm^2/Vs

CCCCCCc1cc(-c2c3c(c(-c4cc(CCCCCC)c(-c5ccc(C#N)cc5)s4)c4nsnc24)N=S=N3)sc1-c1ccc(C#N)cc1 [Compound (RC6), 4,8-bis[4-hexyl-5-(3-(2-methylhexyl)-4-(trifluoromethyl)phenyl)thiophene-2-yl]benzo[1,2-c:4,5-c′]bis[1,2,5]thiadiazole, reference compound]
field-effect mobility (μ) (ink 0.1 wt % in chloroform prepared at room temperature, PVP substrate, no annealing, drain voltage 100 V): did not have the transistor characteristics
field-effect mobility (μ) [6]: did not have the transistor characteristics

CCCCCCCCc1cc(-c2ccc(-c3c4c(c(-c5ccc(-c6ccc(C(F)(F)F)c(CCCCCCCC)c6)s5)c5nsnc35)N=S=N4)s2)ccc1C(F)(F)F [Compound (C24), 4,8-bis[5-(3-octyl-4-(trifluoromethyl)phenyl)thiophene-2-yl]benzo[1,2-c:4,5-c′]bis[1,2,5]thiadiazole]
field-effect mobility (μ) (ink 0.1 wt % in chloroform heated at 70° C., PVP substrate, heated at 150° C. for 35 minutes, drain voltage 100 V): 8.5×10^−1 cm^2/Vs
field-effect mobility (μ) [3]: 7.3×10^−1 cm^2/Vs

CCCCC(CC)Cc1cc(-c2ccc(-c3c4c(c(-c5ccc(-c6ccc(C(F)(F)F)c(CC(CC)CCCC)c6)s5)c5nsnc35)N=S=N4)s2)ccc1C(F)(F)F (centres unmarked) [Compound (C30)]
field-effect mobility (μ) [4]: 1.7×10^0 cm^2/Vs
field-effect mobility (μ) [5]: 8.9×10^−1 cm^2/Vs

CCCCCCCCCCCCc1cc(-c2ccc(-c3c4c(c(-c5ccc(-c6ccc(C(F)(F)F)c(CCCCCCCCCCCC)c6)s5)c5nsnc35)N=S=N4)s2)ccc1C(F)(F)F [Compound (C27), 4,8-bis[5-(3-dodecyl-4-(trifluoromethyl)phenyl)thiophene-2-yl]benzo[1,2-c:4,5-c′]bis[1,2,5]thiadiazole]
field-effect mobility (μ) (ink 0.1 wt % in chloroform heated at 60° C., PVP substrate, heated at 150° C. for 35 minutes, drain voltage 100 V): 1.9×10^0 cm^2/Vs
field-effect mobility (μ) [5]: 1.1×10^0 cm^2/Vs

CCCCCCCc1cc(-c2ccc(-c3c4c(c(-c5ccc(-c6ccc(C#N)c(CCCCCCC)c6)s5)c5nsnc35)N=S=N4)s2)ccc1C#N [Compound (C13), 4,8-bis[5-(4-cyano-3-heptylphenyl)thiophene-2-yl]benzo[1,2-c:4,5-c′]bis[1,2,5]thiadiazole]
field-effect mobility (μ) (ink 0.1 wt % in chloroform prepared at room temperature, CYC substrate, heated at 240° C. for 35 minutes, drain voltage 100 V): 1.4×10^0 cm^2/Vs
field-effect mobility (μ) (ink 0.1 wt % in chloroform prepared at room temperature, PVP substrate, heated at 180° C. for 35 minutes, drain voltage 90 V): 6.8×10^−1 cm^2/Vs
field-effect mobility (μ) (ink 0.1 wt % in chloroform prepared at room temperature, bare substrate, heated at 240° C. for 35 minutes, drain voltage 100 V): 7.9×10^−1 cm^2/Vs

CCCCCCCCCCCCCCCCc1cc(-c2ccc(-c3c4c(c(-c5ccc(-c6ccc(C#N)c(CCCCCCCCCCCCCCCC)c6)s5)c5nsnc35)N=S=N4)s2)ccc1C#N [Compound (C19), 4,8-bis[5-(4-cyano-3-hexadecylphenyl)thiophene-2-yl]benzo[1,2-c:4,5-c′]bis[1,2,5]thiadiazole]
field-effect mobility (μ) (ink 0.1 wt % in chloroform heated at 70° C., PVP substrate, heated at 120° C. for 35 minutes, drain voltage 60 V): 2.9×10^0 cm^2/Vs
field-effect mobility (μ) (ink 0.1 wt % in chloroform heated at 70° C., bare substrate, heated at 180° C. for 35 minutes, drain voltage 60 V): 2.2×10^0 cm^2/Vs

4,8-bis[5-(4-cyano-3-(2-methylhexyl)phenyl)thiophene-2-yl]benzo[1,2-c:4,5-c′]bis[1,2,5]thiadiazole [Compound (C29)]
field-effect mobility (μ) [4]: 1.8×10^0 cm^2/Vs
field-effect mobility (μ) [5]: 2.0×10^0 cm^2/Vs
